Measurements published in the supplement of paper PMC12823440, “Inhibitors supercharge kinase turnover through native proteolytic circuits” (Nature, 2025).
Some of the results follow. Hit calls seldom repeat between salt and free forms of one compound.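 In K562 cells expressing nanoluciferase-fused kinases, luminescence was recorded at 4 h intervals between 2 and 18 h, normalized as percent of control with DMSO at 100% and a positive control at 0%. A significant (2 sigma) signal drop marks a time point as decreased. The authors' rule for a hit is not shown and takes in more than the number of time points.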

Sequences of proteins named here, by UniProt entry; tags and fusion partners are left off. A change or cut given only in a name is not applied to a line headed by its entry.
UniProt P29317, whole entry: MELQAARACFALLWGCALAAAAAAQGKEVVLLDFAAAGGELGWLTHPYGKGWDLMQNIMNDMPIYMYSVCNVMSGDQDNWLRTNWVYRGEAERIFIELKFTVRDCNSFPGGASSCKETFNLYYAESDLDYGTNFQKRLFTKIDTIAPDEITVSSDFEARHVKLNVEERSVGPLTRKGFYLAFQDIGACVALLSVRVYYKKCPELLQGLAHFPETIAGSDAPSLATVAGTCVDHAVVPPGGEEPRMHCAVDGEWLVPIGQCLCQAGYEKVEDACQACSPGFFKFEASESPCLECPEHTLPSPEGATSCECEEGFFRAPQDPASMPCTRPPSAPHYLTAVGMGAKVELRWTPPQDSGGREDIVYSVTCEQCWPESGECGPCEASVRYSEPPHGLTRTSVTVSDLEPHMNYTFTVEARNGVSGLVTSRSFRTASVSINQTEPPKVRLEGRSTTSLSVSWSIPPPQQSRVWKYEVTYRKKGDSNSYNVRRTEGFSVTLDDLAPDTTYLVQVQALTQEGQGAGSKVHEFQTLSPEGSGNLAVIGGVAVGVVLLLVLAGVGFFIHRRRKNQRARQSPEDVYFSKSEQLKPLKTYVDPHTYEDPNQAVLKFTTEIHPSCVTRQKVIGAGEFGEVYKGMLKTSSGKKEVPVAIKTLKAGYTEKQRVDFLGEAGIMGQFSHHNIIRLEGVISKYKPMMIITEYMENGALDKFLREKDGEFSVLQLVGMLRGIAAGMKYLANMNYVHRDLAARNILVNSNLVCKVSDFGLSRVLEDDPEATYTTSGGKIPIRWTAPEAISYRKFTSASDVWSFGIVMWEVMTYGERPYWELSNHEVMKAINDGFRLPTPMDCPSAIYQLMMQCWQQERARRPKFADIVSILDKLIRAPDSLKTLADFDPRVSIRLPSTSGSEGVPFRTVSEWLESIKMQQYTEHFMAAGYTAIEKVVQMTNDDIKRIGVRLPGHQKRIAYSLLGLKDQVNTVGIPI
UniProt Q15303, whole entry R711C: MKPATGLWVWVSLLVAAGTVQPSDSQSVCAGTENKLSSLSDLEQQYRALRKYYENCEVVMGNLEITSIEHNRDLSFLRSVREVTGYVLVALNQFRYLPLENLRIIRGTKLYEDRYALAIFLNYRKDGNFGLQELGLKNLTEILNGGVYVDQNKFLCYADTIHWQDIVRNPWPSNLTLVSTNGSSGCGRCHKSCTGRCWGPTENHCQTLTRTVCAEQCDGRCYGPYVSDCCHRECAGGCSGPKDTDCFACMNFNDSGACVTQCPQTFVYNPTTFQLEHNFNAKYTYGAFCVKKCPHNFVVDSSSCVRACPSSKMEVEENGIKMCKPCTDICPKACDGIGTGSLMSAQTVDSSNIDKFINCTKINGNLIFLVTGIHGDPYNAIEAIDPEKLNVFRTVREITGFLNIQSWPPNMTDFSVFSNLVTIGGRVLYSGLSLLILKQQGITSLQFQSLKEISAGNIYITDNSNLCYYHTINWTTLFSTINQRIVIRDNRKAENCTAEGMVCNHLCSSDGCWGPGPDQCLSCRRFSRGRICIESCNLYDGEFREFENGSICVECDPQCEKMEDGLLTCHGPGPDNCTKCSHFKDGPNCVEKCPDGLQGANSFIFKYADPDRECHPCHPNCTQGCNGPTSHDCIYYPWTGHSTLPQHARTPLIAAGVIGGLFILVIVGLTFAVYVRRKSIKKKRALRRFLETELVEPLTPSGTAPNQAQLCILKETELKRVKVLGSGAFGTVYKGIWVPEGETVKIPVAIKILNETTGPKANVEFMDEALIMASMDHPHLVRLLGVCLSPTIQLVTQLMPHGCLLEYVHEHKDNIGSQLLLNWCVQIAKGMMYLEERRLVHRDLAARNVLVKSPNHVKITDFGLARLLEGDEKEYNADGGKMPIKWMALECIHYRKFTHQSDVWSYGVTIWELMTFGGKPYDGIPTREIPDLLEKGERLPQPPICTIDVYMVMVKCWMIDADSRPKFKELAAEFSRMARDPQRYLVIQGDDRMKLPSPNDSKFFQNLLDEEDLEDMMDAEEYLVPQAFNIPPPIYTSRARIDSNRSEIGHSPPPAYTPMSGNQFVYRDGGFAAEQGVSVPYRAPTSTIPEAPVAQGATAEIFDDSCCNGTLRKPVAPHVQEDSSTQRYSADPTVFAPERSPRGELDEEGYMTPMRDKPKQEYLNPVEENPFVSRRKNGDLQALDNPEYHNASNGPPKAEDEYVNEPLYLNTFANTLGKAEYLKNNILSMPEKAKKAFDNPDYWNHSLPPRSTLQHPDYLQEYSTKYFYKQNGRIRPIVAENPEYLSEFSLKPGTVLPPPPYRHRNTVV
UniProt P11362, whole entry, looked up: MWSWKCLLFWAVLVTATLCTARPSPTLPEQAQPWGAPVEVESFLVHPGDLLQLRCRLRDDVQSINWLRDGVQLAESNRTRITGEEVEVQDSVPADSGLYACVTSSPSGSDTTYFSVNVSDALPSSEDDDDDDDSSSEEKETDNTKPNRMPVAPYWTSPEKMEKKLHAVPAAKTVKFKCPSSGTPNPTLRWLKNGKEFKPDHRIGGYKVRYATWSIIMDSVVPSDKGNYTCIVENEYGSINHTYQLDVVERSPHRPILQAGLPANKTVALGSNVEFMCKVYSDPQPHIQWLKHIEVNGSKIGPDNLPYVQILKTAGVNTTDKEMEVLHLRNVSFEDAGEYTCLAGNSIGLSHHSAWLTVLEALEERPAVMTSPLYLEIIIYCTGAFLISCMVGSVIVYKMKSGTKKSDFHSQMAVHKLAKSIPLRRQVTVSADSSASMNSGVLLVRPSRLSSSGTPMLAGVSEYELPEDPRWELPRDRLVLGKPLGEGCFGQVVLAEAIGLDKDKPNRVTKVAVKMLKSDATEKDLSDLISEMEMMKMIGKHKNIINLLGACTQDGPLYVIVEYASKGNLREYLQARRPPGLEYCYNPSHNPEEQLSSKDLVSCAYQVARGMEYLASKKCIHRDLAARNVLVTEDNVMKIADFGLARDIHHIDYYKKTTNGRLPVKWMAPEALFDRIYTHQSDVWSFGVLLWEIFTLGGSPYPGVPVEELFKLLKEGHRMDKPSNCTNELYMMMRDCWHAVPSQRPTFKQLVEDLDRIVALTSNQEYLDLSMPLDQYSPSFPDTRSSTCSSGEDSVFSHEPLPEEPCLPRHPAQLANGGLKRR
UniProt P36888, whole entry: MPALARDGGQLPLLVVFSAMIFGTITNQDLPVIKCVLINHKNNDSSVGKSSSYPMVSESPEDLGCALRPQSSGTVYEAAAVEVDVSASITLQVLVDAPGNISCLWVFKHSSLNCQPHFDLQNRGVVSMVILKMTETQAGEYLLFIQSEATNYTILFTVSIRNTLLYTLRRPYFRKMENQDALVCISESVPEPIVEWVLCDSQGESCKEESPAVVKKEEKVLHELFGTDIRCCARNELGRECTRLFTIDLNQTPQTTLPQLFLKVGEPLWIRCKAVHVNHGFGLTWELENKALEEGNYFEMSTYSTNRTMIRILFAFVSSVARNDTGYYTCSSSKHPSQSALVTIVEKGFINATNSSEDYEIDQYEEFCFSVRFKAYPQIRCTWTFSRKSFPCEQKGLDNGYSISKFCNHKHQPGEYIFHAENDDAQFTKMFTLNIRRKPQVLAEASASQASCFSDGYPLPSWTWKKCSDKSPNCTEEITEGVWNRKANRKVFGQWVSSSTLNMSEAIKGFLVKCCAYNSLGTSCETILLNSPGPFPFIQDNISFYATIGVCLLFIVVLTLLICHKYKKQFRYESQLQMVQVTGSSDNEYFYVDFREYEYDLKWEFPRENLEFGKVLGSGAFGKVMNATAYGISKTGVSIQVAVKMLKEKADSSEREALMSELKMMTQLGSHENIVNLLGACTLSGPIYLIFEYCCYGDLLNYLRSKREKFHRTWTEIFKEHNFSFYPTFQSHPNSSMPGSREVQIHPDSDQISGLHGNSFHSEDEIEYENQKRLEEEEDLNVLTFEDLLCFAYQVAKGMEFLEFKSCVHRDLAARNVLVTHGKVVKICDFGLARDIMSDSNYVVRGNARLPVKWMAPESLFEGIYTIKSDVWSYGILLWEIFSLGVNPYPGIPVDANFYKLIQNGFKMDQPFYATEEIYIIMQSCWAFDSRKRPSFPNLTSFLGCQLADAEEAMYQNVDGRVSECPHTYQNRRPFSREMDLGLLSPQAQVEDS
UniProt P06241, whole entry, looked up: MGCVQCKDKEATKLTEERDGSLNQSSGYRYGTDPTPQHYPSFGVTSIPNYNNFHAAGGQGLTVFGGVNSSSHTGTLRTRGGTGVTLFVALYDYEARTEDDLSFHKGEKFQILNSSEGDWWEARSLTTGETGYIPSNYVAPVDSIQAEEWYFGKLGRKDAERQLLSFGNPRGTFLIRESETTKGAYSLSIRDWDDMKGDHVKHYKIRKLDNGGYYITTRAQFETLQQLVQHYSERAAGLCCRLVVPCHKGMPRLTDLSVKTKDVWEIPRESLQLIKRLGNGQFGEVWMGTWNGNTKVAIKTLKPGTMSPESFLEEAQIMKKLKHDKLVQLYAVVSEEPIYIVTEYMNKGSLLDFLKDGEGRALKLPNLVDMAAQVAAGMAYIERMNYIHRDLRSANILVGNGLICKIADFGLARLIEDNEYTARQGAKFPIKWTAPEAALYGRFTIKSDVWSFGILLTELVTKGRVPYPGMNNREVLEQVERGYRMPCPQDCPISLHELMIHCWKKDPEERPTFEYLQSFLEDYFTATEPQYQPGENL
UniProt P49840: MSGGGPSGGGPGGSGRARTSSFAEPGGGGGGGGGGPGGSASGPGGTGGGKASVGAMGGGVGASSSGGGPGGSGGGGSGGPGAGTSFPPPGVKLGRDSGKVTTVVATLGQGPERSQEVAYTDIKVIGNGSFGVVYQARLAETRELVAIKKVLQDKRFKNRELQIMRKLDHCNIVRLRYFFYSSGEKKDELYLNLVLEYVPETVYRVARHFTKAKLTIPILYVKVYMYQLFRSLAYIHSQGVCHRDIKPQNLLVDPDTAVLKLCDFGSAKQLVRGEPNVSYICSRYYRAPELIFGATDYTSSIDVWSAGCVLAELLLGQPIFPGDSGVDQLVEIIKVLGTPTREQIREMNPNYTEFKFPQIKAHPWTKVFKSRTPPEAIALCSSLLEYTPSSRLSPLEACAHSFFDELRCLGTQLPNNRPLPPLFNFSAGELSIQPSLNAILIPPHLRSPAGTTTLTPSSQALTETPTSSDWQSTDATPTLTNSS
UniProt P14616: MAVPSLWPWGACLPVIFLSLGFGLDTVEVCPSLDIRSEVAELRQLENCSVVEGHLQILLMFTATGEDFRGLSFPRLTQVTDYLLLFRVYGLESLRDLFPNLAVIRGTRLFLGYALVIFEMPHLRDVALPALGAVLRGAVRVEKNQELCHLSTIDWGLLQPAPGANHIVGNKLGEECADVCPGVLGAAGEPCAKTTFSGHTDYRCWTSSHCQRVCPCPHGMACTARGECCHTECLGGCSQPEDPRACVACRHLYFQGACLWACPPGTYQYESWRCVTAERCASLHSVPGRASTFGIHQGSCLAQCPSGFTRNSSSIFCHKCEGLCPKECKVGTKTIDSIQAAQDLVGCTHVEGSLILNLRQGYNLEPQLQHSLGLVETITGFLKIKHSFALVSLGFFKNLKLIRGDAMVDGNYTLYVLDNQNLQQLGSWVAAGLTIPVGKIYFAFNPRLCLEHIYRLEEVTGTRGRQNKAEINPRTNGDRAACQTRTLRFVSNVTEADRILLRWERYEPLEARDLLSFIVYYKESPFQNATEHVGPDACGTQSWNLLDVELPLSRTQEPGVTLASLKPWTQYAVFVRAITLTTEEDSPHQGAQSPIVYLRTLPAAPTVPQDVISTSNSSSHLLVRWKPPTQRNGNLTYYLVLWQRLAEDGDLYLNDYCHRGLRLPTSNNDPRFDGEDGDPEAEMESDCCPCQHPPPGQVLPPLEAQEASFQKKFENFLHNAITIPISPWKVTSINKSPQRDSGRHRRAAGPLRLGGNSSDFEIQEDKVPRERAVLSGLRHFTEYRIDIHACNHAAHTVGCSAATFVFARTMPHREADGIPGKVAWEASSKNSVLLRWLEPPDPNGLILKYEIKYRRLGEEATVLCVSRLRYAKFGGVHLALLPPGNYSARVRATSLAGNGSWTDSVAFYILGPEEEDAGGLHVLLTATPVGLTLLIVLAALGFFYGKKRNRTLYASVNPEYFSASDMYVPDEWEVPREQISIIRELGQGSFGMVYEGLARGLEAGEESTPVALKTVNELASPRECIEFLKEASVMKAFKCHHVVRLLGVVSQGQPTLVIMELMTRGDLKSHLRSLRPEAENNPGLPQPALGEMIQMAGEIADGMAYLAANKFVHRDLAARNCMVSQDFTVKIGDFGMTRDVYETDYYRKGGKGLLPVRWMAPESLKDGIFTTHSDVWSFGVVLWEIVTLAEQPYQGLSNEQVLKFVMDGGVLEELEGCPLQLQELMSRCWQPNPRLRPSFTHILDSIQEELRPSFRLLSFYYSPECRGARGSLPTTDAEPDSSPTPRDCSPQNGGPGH

Columns and labels:
Assay in all cases: kinase-Nluc reporter destabilization hit call (1 = scored as downregulated) (binary); higher = compound decreases kinase abundance
Conditions in all cases: K562; 2-18 h
EGFR = EGFR (UniProt P00533)
EGFR_G719S = EGFR_G719S (UniProt P00533)
EGFR_G719S_T790M = EGFR_G719S_T790M (UniProt P00533)
EGFR_L718V = EGFR_L718V (UniProt P00533)
EGFR_L858R = EGFR_L858R (UniProt P00533)
EGFR_L861Q = EGFR_L861Q (UniProt P00533)
EGFR_T790M = EGFR_T790M (UniProt P00533)
EPHA2 = EPHA2 (UniProt P29317)
ERBB3 = ERBB3 (UniProt P21860)
[1] = target: ERBB4_R711C (clone: ERBB4_mut) (UniProt Q15303)
ERN1 = ERN1 (UniProt O75460)
FGFR1 = FGFR1 (UniProt P11362)
FGFR2 = FGFR2 (UniProt P21802)
FGFR3 = FGFR3 (UniProt P22607)
FGR = FGR (UniProt P09769)
FLT3 = FLT3 (UniProt P36888)
FYN = FYN (UniProt P06241)
GSK3A = GSK3A (UniProt P49840)
HER2 = HER2 (UniProt P04626)
INSRR = INSRR (UniProt P14616)

Row | Structure (SMILES) | kinase-Nluc reporter destabilization hit call (EGFR) | kinase-Nluc reporter destabilization hit call (EGFR_G719S) | kinase-Nluc reporter destabilization hit call (EGFR_G719S_T790M) | kinase-Nluc reporter destabilization hit call (EGFR_L718V) | kinase-Nluc reporter destabilization hit call (EGFR_L858R) | kinase-Nluc reporter destabilization hit call (EGFR_L861Q) | kinase-Nluc reporter destabilization hit call (EGFR_T790M) | kinase-Nluc reporter destabilization hit call (EPHA2) | kinase-Nluc reporter destabilization hit call (ERBB3) | kinase-Nluc reporter destabilization hit call [1] | kinase-Nluc reporter destabilization hit call (ERN1) | kinase-Nluc reporter destabilization hit call (FGFR1) | kinase-Nluc reporter destabilization hit call (FGFR2) | kinase-Nluc reporter destabilization hit call (FGFR3) | kinase-Nluc reporter destabilization hit call (FGR) | kinase-Nluc reporter destabilization hit call (FLT3) | kinase-Nluc reporter destabilization hit call (FYN) | kinase-Nluc reporter destabilization hit call (GSK3A) | kinase-Nluc reporter destabilization hit call (HER2) | kinase-Nluc reporter destabilization hit call (INSRR)
1 | Cc1cccc(-c2[nH]c(C(C)(C)C)nc2-c2ccc3c(c2)OCO3)n1 (2.5 µM) | inactive: 0 | inactive: 0 | inactive: 0 | inactive: 0 | inactive: 0 | inactive: 0 | inactive: 0 | inactive: 0 | inactive: 0 | inactive: 0 | inactive: 0 | inactive: 0 | inactive: 0 | inactive: 0 | inactive: 0 | inactive: 0 | inactive: 0 | inactive: 0 | inactive: 0 | inactive: 0
2 | CN(C/C=C/C(=O)Nc1ccc(C(=O)Nc2cccc(Nc3ncc(Cl)c(-c4c[nH]c5ccccc45)n3)c2)cc1)CCCNC(=O)NCCOCCOCCOCCNC(=O)CCCC[C@@H]1SC[C@@H]2NC(=O)N[C@@H]21 (2.5 µM) | inactive: 0 | inactive: 0 | inactive: 0 | inactive: 0 | inactive: 0 | inactive: 0 | inactive: 0 | inactive: 0 | inactive: 0 | inactive: 0 | inactive: 0 | inactive: 0 | inactive: 0 | inactive: 0 | inactive: 0 | inactive: 0 | inactive: 0 | inactive: 0 | inactive: 0 | inactive: 0
3 | CC(C)[C@H](CO)Nc1nc(Nc2ccc(C(=O)O)c(Cl)c2)c2ncn(C(C)C)c2n1 [Purvalanol B] (10 µM) | inactive: 0 | inactive: 0 | inactive: 0 | inactive: 0 | inactive: 0 | inactive: 0 | inactive: 0 | inactive: 0 | inactive: 0 | inactive: 0 | inactive: 0 | inactive: 0 | inactive: 0 | inactive: 0 | inactive: 0 | inactive: 0 | inactive: 0 | inactive: 0 | inactive: 0 | inactive: 0
4 | Cc1nc(NC(=O)N2CCC[C@H]2C(N)=O)sc1-c1csc(C(C)(C)C)n1 (10 µM) | inactive: 0 | inactive: 0 | inactive: 0 | inactive: 0 | inactive: 0 | inactive: 0 | inactive: 0 | inactive: 0 | inactive: 0 | inactive: 0 | inactive: 0 | inactive: 0 | inactive: 0 | inactive: 0 | inactive: 0 | inactive: 0 | inactive: 0 | inactive: 0 | inactive: 0 | inactive: 0
5 | Cn1sc(=O)n(Cc2ccccc2)c1=O (10 µM) | inactive: 0 | inactive: 0 | inactive: 0 | inactive: 0 | inactive: 0 | inactive: 0 | inactive: 0 | inactive: 0 | inactive: 0 | inactive: 0 | inactive: 0 | inactive: 0 | inactive: 0 | inactive: 0 | inactive: 0 | inactive: 0 | inactive: 0 | inactive: 0 | inactive: 0 | inactive: 0
6 | N#Cc1c[nH]c2ccc(-c3ccc(-c4c(O)cccc4O)cc3)cc12 (10 µM) | inactive: 0 | inactive: 0 | inactive: 0 | inactive: 0 | inactive: 0 | inactive: 0 | inactive: 0 | inactive: 0 | inactive: 0 | inactive: 0 | inactive: 0 | inactive: 0 | inactive: 0 | inactive: 0 | inactive: 0 | inactive: 0 | inactive: 0 | inactive: 0 | inactive: 0 | inactive: 0
7 | Cc1cc([N+](=O)[O-])c(NS(=O)(=O)c2cccc(C(=O)O)c2)cc1-c1cccnc1 [Alofanib] (10 µM) | inactive: 0 | inactive: 0 | inactive: 0 | inactive: 0 | inactive: 0 | inactive: 0 | inactive: 0 | inactive: 0 | inactive: 0 | inactive: 0 | inactive: 0 | inactive: 0 | inactive: 0 | inactive: 0 | inactive: 0 | inactive: 0 | inactive: 0 | inactive: 0 | inactive: 0 | inactive: 0
8 | Cc1cc(/C=C2\CC/C(=C\c3cc(C)c(O)c(C)c3)C2=O)cc(C)c1O [Pentagamavunon-1] (2.5 µM) | inactive: 0 | inactive: 0 | inactive: 0 | inactive: 0 | inactive: 0 | inactive: 0 | inactive: 0 | inactive: 0 | inactive: 0 | inactive: 0 | inactive: 0 | inactive: 0 | inactive: 0 | inactive: 0 | inactive: 0 | inactive: 0 | inactive: 0 | inactive: 0 | inactive: 0 | inactive: 0
9 | Cc1ccc(CNC(=O)N2CCC[C@]3(CCN(Cc4ccc(Cl)c(Cl)c4)C3)C2)cc1 (10 µM) | inactive: 0 | inactive: 0 | inactive: 0 | inactive: 0 | inactive: 0 | inactive: 0 | inactive: 0 | inactive: 0 | inactive: 0 | inactive: 0 | inactive: 0 | inactive: 0 | inactive: 0 | inactive: 0 | inactive: 0 | inactive: 0 | inactive: 0 | inactive: 0 | inactive: 0 | inactive: 0
10 | CS(=O)(=O)N1CCN(Cc2cn3cc(-c4cnc(N)nc4)nc(N4CCOCC4)c3n2)CC1 (10 µM) | inactive: 0 | inactive: 0 | inactive: 0 | inactive: 0 | inactive: 0 | inactive: 0 | inactive: 0 | inactive: 0 | inactive: 0 | inactive: 0 | inactive: 0 | inactive: 0 | inactive: 0 | inactive: 0 | inactive: 0 | inactive: 0 | active: 1 | inactive: 0 | inactive: 0 | inactive: 0
11 | CC(=O)c1cc(O)ccc1O [2,5-Dihydroxyacetophenone] (10 µM) | inactive: 0 | inactive: 0 | inactive: 0 | inactive: 0 | inactive: 0 | inactive: 0 | inactive: 0 | inactive: 0 | inactive: 0 | inactive: 0 | inactive: 0 | inactive: 0 | inactive: 0 | inactive: 0 | inactive: 0 | inactive: 0 | inactive: 0 | inactive: 0 | inactive: 0 | inactive: 0
12 | C[C@@H]1O[C@@H](O[C@H]2[C@H](OC(=O)[C@]34CCC(C)(C)C[C@H]3C3=CC[C@@H]5[C@@]6(C)C[C@H](O)[C@H](O[C@@H]7O[C@H](CO)[C@@H](O)[C@H](O)[C@H]7O)C(CO)(CO)[C@@H]6CC[C@@]5(C)[C@]3(C)C[C@H]4O)OC[C@H](O)[C@@H]2O)[C@H](O)[C@H](O)[C@H]1O[C@@H]1OC[C@@H](O)[C@H](O[C@@H]2OC[C@](O)(CO)[C@H]2O)[C@H]1O [Platycodin D] (10 µM) | inactive: 0 | inactive: 0 | inactive: 0 | inactive: 0 | inactive: 0 | inactive: 0 | inactive: 0 | inactive: 0 | inactive: 0 | inactive: 0 | inactive: 0 | inactive: 0 | inactive: 0 | inactive: 0 | inactive: 0 | inactive: 0 | inactive: 0 | inactive: 0 | inactive: 0 | inactive: 0
13 | O=c1ccc2cc(O)c(O)cc2o1 [Esculetin] (10 µM) | inactive: 0 | inactive: 0 | inactive: 0 | inactive: 0 | inactive: 0 | inactive: 0 | inactive: 0 | inactive: 0 | inactive: 0 | inactive: 0 | inactive: 0 | inactive: 0 | inactive: 0 | inactive: 0 | inactive: 0 | inactive: 0 | inactive: 0 | inactive: 0 | inactive: 0 | inactive: 0
14 | CC[C@@H]1CN(C(=O)NCC(F)(F)F)C[C@@H]1c1cnc2cnc3[nH]ccc3n12 [Upadacitinib] (10 µM) | inactive: 0 | inactive: 0 | inactive: 0 | inactive: 0 | inactive: 0 | inactive: 0 | inactive: 0 | inactive: 0 | inactive: 0 | inactive: 0 | inactive: 0 | inactive: 0 | inactive: 0 | inactive: 0 | inactive: 0 | inactive: 0 | inactive: 0 | inactive: 0 | inactive: 0 | inactive: 0
15 | O=C(N/N=C/c1ccc([N+](=O)[O-])o1)c1ccc(O)cc1 [Nifuroxazide] (10 µM) | inactive: 0 | inactive: 0 | inactive: 0 | inactive: 0 | inactive: 0 | inactive: 0 | inactive: 0 | inactive: 0 | inactive: 0 | inactive: 0 | inactive: 0 | inactive: 0 | inactive: 0 | inactive: 0 | inactive: 0 | inactive: 0 | inactive: 0 | inactive: 0 | inactive: 0 | inactive: 0
16 | C[C@@H](Nc1cc(F)cc(F)c1)c1cc(C(=O)N(C)C)cc2c(=O)cc(N3CCOCC3)oc12 (10 µM) | inactive: 0 | inactive: 0 | inactive: 0 | inactive: 0 | inactive: 0 | inactive: 0 | inactive: 0 | inactive: 0 | inactive: 0 | inactive: 0 | inactive: 0 | inactive: 0 | inactive: 0 | inactive: 0 | inactive: 0 | inactive: 0 | inactive: 0 | inactive: 0 | inactive: 0 | inactive: 0

Full records, looked up by structure. Order of values: kinase-Nluc reporter destabilization hit call (EGFR) | kinase-Nluc reporter destabilization hit call (EGFR_G719S) | kinase-Nluc reporter destabilization hit call (EGFR_G719S_T790M) | kinase-Nluc reporter destabilization hit call (EGFR_L718V) | kinase-Nluc reporter destabilization hit call (EGFR_L858R) | kinase-Nluc reporter destabilization hit call (EGFR_L861Q) | kinase-Nluc reporter destabilization hit call (EGFR_T790M) | kinase-Nluc reporter destabilization hit call (EPHA2) | kinase-Nluc reporter destabilization hit call (ERBB3) | kinase-Nluc reporter destabilization hit call [1] | kinase-Nluc reporter destabilization hit call (ERN1) | kinase-Nluc reporter destabilization hit call (FGFR1) | kinase-Nluc reporter destabilization hit call (FGFR2) | kinase-Nluc reporter destabilization hit call (FGFR3) | kinase-Nluc reporter destabilization hit call (FGR) | kinase-Nluc reporter destabilization hit call (FLT3) | kinase-Nluc reporter destabilization hit call (FYN) | kinase-Nluc reporter destabilization hit call (GSK3A) | kinase-Nluc reporter destabilization hit call (HER2) | kinase-Nluc reporter destabilization hit call (INSRR)
`CC(=O)c1cc(O)ccc1O` [2,5-Dihydroxyacetophenone] (10 µM) is entered as inactive: 0 | inactive: 0 | inactive: 0 | inactive: 0 | inactive: 0 | inactive: 0 | inactive: 0 | inactive: 0 | inactive: 0 | inactive: 0 | inactive: 0 | inactive: 0 | inactive: 0 | inactive: 0 | inactive: 0 | inactive: 0 | inactive: 0 | inactive: 0 | inactive: 0 | inactive: 0
`Cc1ccc(CNC(=O)N2CCC[C@]3(CCN(Cc4ccc(Cl)c(Cl)c4)C3)C2)cc1` (10 µM) is entered as inactive: 0 | inactive: 0 | inactive: 0 | inactive: 0 | inactive: 0 | inactive: 0 | inactive: 0 | inactive: 0 | inactive: 0 | inactive: 0 | inactive: 0 | inactive: 0 | inactive: 0 | inactive: 0 | inactive: 0 | inactive: 0 | inactive: 0 | inactive: 0 | inactive: 0 | inactive: 0
